Some of the results follow.

Chains of the proteins cited; added tags and fusions are not shown.
UniProt Q0JBA9, entry or part of it: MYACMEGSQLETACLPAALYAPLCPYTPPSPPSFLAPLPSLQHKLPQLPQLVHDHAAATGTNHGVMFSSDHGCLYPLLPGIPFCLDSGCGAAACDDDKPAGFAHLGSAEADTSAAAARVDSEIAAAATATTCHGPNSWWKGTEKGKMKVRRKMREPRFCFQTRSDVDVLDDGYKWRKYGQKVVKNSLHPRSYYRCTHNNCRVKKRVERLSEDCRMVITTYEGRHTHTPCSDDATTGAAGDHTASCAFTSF

The values that follow come from publication PMC7819943, “Rice protein-binding microarrays: a tool to detect cis-acting elements near promoter regions in rice”.

This assay concerns the target OsWRKY34 (Oryza sativa, UniProt Q0JBA9 1-250). In words: protein-binding microarray (RPBM); PBS, 2% BSA, 51.3 ng/ul salmon testes DNA, 50 uM zinc acetate, 200 nM TF, 25 C, 1 h; high values mean tight binding. Conditions: protein: recombinant; tags: N-terminal polyhistidine and DsRed monomer fusion (pET32a); label: CyDye5-dUTP incorporated in the synthesized complementary strand; 3' TTTTT single-stranded linker to array surface; dsDNA, one strand shown. The procedure, abridged:
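An Axon 4000B scanner gave the binding signal as per-feature fluorescence intensity in arbitrary units. This followed washing of a custom Agilent array that had been incubated for 1 h at 25 °C with 200 nM protein in PBS, 2% BSA, salmon testes DNA and 50 µM zinc acetate. The proteins were transcription factors fused at the N-terminus to polyhistidine and DsRed, expressed in E. coli BL21-CodonPlus and purified on Ni–NTA.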
With “GATGTCTTTTACTCCCATGTTAGCAGTGCCGAGATTTCGTCGGAGTCACCTAGTGCAG”, the binding signal was 9800 fluorescence intensity (a.u.).

For the sequence “GGGTGTTTGTGAGAGAGAGAGAGAGAGAGAGATTCCATTTCGGAGTCACCTAGTGCAG”, the binding signal was 8390 fluorescence intensity (a.u.).

For the sequence “GCAAACCATATTTTCGTCGGTCTACTTCTGGGAATTCGTTCGGAGTCACCTAGTGCAG”, the binding signal is 8360 fluorescence intensity (a.u.).

Regarding “CATTTGTTTCGACCGCTTCAAGCCTTGGATGCTCTGCTCTCGGAGTCACCTAGTGCAG”, the binding signal is 11400 fluorescence intensity (a.u.).

Consider “GACTTCATTGGTATTAAGATATATTGACTTAATTTTTGTCCGGAGTCACCTAGTGCAG”, for which the binding signal was 8180 fluorescence intensity (a.u.).

Turning to “GATCTTTCAGCTCCTTGACAGCACTGCGTCTTCTATCATACGGAGTCACCTAGTGCAG”, the binding signal was 8230 fluorescence intensity (a.u.).

As to “GCAAATGTCCTACTCTGTTTAATGCCAAACCACCCACAATCGGAGTCACCTAGTGCAG”, the binding signal was 9480 fluorescence intensity (a.u.).

As for “CATGCTGACTTTACAATCACTTTCTTCAACCCAATGTACTCGGAGTCACCTAGTGCAG”, the binding signal is 8290 fluorescence intensity (a.u.).

Regarding “TCCCATGCCGCGCTCGTCGATCCCCAAATCTCGCCGCCGGCGGAGTCACCTAGTGCAG”, the binding signal is 9000 fluorescence intensity (a.u.).

In the case of “TGCTTTACTTTCCATTCCCATTGCAACCCCACAACTTTCTCGGAGTCACCTAGTGCAG”, the binding signal is 10200 fluorescence intensity (a.u.).

As to “GTGAAGGTGTTGTTGTTGGTGGTGGTGGATTTTCGCCATGCGGAGTCACCTAGTGCAG”, the binding signal was 10100 fluorescence intensity (a.u.).

Take “GCCTGAGTTCCAGCTAAGTCGTTGACTAACTCCCAGCAAACGGAGTCACCTAGTGCAG”: the binding signal was 13400 fluorescence intensity (a.u.).

“TTTGCTGCTGAATGTTATATGTGTCGTTCCTATAAAATCCCGGAGTCACCTAGTGCAG”: the binding signal is 8380 fluorescence intensity (a.u.).

In the case of “CCTCTCCCGTCGCCACCCATCTCGCCGCGACCTGGAGATCCGGAGTCACCTAGTGCAG”, the binding signal was 8750 fluorescence intensity (a.u.).

“ATCCTGACCCATAGTTGGCCGTACGTTGTTTGCCCATCCACGGAGTCACCTAGTGCAG”: the binding signal was 11800 fluorescence intensity (a.u.).

Take “TCACCTTAGACCCTGTTTAATTCACATTAAACTTTTCCTACGGAGTCACCTAGTGCAG”: the binding signal is 8480 fluorescence intensity (a.u.).

As for “TTTAAATTTATATTTCTAATTAATTAGGTTGTGTTTTTATCGGAGTCACCTAGTGCAG”, the binding signal is 9020 fluorescence intensity (a.u.).

Regarding “GGAGACCATCGCCCCTGTTCTCGTCGTCATCGCGGAGGTTCGGAGTCACCTAGTGCAG”, the binding signal is 11100 fluorescence intensity (a.u.).

For “GTACTAAGTTCTTTCTTTGACTTACCGTTTAAGGTCGTCTCGGAGTCACCTAGTGCAG”, the binding signal was 9490 fluorescence intensity (a.u.).

For “TTGGTCAAAGTCAAACTGCTTTAAGTTTGACCAAGTTTGTCGGAGTCACCTAGTGCAG”, the binding signal was 21500 fluorescence intensity (a.u.).

Consider “GTAGCTTCTCCGGTTGGCGTCATACACCACCTTTACCTCGCGGAGTCACCTAGTGCAG”, for which the binding signal was 8320 fluorescence intensity (a.u.).

Take “ATTATTTTGTCTTCCGCTGTTGTTCTCTGATAGTTGTTGGCGGAGTCACCTAGTGCAG”: the binding signal is 8170 fluorescence intensity (a.u.).

With “GAACTATTACTCCATCCGGTTTCATATTCCTAACATTTTACGGAGTCACCTAGTGCAG”, the binding signal is 12500 fluorescence intensity (a.u.).

For “AGATTCAGTTCTTCATTTGGTTATTATCTAAAGAACGCCTCGGAGTCACCTAGTGCAG”, the binding signal was 9020 fluorescence intensity (a.u.).

Turning to “ATCATAATATGTGGTTCTTTTTATTTAAAATATTTTATTTCGGAGTCACCTAGTGCAG”, the binding signal is 9230 fluorescence intensity (a.u.).

Regarding “CTCCTGCCTGGGTTTGGTTTGGTTTGGCTTTGCTTCTTCCCGGAGTCACCTAGTGCAG”, the binding signal is 36800 fluorescence intensity (a.u.).

Regarding “AATCAACTCCACTGTATCAGCCAGCTGCTTCGGAAAGCTCCGGAGTCACCTAGTGCAG”, the binding signal is 10300 fluorescence intensity (a.u.).

On to “CACCCAACTAACTACACCTGTCTGAAACCAACAATTTTCTCGGAGTCACCTAGTGCAG”, for which the binding signal was 8390 fluorescence intensity (a.u.).

“CACCCAATTGCAAGTTTTGTTGTATGTTCCAAGCTGTGTTCGGAGTCACCTAGTGCAG”: the binding signal is 8700 fluorescence intensity (a.u.).

In the case of “CGTCGCCCGTCGCCAGCCACCAGCCGATTGGCTCTGATACCGGAGTCACCTAGTGCAG”, the binding signal is 8410 fluorescence intensity (a.u.).

Turning to “GGTCACCGCTCTCTCGGTTGACCGGCTGCCTAACCTTCGCCGGAGTCACCTAGTGCAG”, the binding signal was 8730 fluorescence intensity (a.u.).

Consider “AACGATGCACAAACTACAACGAACTCGCCCACAATCGCAACGGAGTCACCTAGTGCAG”, for which the binding signal was 8070 fluorescence intensity (a.u.).

For “CCATCACCTCGTCGTCCCCGTCACCGCGCCTCTCCCGCTGCGGAGTCACCTAGTGCAG”, the binding signal was 11000 fluorescence intensity (a.u.).

Regarding “GCTAATATTATAAGGCTCAATTCATTCTCTTGGGTGTTCTCGGAGTCACCTAGTGCAG”, the binding signal is 8080 fluorescence intensity (a.u.).

Turning to “GGTTGTTGATTGCGCACGGATTTCCTCTGTTGTCTTGAGCCGGAGTCACCTAGTGCAG”, the binding signal is 9050 fluorescence intensity (a.u.).

As for “GCGGGAGGAGAGCGGCGGGCGGCGGGCGGCGGCGGCTGTGCGGAGTCACCTAGTGCAG”, the binding signal was 9520 fluorescence intensity (a.u.).

Take “AACCACGATCTCTCTTCTGCTTGGAATTCTCTATCCTATTCGGAGTCACCTAGTGCAG”: the binding signal is 8420 fluorescence intensity (a.u.).

“AGGTTCCTTTCAGGTCTGGTGCATCGGCATCAGTCTCTCGCGGAGTCACCTAGTGCAG”: the binding signal is 9020 fluorescence intensity (a.u.).

For “TCCATATAAAATTTGTCTCAATCCGTGTCCATATGAAAAACGGAGTCACCTAGTGCAG”, the binding signal is 8130 fluorescence intensity (a.u.).

As for “AAATTTACTGTTGCCTCTCTTTTATTTTCTTAGGCCCAAGCGGAGTCACCTAGTGCAG”, the binding signal is 8380 fluorescence intensity (a.u.).

Take “GGGCTTCTCAGCTCATCATGTTCACCACTCAGGGCCGAATCGGAGTCACCTAGTGCAG”: the binding signal was 8170 fluorescence intensity (a.u.).

For the sequence “TCAATAGTTCGGGGTCGAGATATGTGGTAATGTGGTTCATCGGAGTCACCTAGTGCAG”, the binding signal is 10100 fluorescence intensity (a.u.).

Regarding “CGGTCTCTCGCCTTGTCACCTTACTTGCTTGGCTACTACTCGGAGTCACCTAGTGCAG”, the binding signal is 11400 fluorescence intensity (a.u.).

In the case of “CATCGTGCCGCACCCGATTCCTCATCCGCGTCATCTCCACCGGAGTCACCTAGTGCAG”, the binding signal is 10100 fluorescence intensity (a.u.).

As to “ACTTGTCTTTTTAATTTTTTTCCATATTTTTTTTAAATAACGGAGTCACCTAGTGCAG”, the binding signal is 8100 fluorescence intensity (a.u.).

As for “AGGAGAGGCAAAGAAGGTGGGGATGGACGTGTGGGGCCTCCGGAGTCACCTAGTGCAG”, the binding signal is 10600 fluorescence intensity (a.u.).

For “GCTAGTTCTATCCTGAGTTTTGTGATCTTGATCTCTTTGACGGAGTCACCTAGTGCAG”, the binding signal is 10000 fluorescence intensity (a.u.).

As for “GAGCCATCTGAACACTTGGACCATAGGCCACCCCTATCCGCGGAGTCACCTAGTGCAG”, the binding signal was 8150 fluorescence intensity (a.u.).

Regarding “ATTATACTACTCCTGTACTATTTTTCTCGTTTGCCGTGTCCGGAGTCACCTAGTGCAG”, the binding signal is 8620 fluorescence intensity (a.u.).

In the case of “GTTCGCTGGTTGCTTGCGTGCTGGTTTGGCTTTGAATTGACGGAGTCACCTAGTGCAG”, the binding signal was 11700 fluorescence intensity (a.u.).

Turning to “CTCCGCTTCCACAGCTTTGCTACTAATCCGCGCACTAATTCGGAGTCACCTAGTGCAG”, the binding signal was 10600 fluorescence intensity (a.u.).

Take “TCTACATGGATATCTATAGCTCTCTCATCCATTGTCTCGTCGGAGTCACCTAGTGCAG”: the binding signal is 8150 fluorescence intensity (a.u.).

As for “ACAGTTAAATTTGCTATTTTTGTTTTTACTTGTATAAGTTCGGAGTCACCTAGTGCAG”, the binding signal is 8980 fluorescence intensity (a.u.).

Consider “TGTGTTTTTCCTGTGTTTTGCAATCTCTGTTTTACACTTACGGAGTCACCTAGTGCAG”, for which the binding signal is 13600 fluorescence intensity (a.u.).
